{
  "sequences": {"note": "The chains behind the UniProt entries cited, without tags or fusion partners.", "UniProt P35579": "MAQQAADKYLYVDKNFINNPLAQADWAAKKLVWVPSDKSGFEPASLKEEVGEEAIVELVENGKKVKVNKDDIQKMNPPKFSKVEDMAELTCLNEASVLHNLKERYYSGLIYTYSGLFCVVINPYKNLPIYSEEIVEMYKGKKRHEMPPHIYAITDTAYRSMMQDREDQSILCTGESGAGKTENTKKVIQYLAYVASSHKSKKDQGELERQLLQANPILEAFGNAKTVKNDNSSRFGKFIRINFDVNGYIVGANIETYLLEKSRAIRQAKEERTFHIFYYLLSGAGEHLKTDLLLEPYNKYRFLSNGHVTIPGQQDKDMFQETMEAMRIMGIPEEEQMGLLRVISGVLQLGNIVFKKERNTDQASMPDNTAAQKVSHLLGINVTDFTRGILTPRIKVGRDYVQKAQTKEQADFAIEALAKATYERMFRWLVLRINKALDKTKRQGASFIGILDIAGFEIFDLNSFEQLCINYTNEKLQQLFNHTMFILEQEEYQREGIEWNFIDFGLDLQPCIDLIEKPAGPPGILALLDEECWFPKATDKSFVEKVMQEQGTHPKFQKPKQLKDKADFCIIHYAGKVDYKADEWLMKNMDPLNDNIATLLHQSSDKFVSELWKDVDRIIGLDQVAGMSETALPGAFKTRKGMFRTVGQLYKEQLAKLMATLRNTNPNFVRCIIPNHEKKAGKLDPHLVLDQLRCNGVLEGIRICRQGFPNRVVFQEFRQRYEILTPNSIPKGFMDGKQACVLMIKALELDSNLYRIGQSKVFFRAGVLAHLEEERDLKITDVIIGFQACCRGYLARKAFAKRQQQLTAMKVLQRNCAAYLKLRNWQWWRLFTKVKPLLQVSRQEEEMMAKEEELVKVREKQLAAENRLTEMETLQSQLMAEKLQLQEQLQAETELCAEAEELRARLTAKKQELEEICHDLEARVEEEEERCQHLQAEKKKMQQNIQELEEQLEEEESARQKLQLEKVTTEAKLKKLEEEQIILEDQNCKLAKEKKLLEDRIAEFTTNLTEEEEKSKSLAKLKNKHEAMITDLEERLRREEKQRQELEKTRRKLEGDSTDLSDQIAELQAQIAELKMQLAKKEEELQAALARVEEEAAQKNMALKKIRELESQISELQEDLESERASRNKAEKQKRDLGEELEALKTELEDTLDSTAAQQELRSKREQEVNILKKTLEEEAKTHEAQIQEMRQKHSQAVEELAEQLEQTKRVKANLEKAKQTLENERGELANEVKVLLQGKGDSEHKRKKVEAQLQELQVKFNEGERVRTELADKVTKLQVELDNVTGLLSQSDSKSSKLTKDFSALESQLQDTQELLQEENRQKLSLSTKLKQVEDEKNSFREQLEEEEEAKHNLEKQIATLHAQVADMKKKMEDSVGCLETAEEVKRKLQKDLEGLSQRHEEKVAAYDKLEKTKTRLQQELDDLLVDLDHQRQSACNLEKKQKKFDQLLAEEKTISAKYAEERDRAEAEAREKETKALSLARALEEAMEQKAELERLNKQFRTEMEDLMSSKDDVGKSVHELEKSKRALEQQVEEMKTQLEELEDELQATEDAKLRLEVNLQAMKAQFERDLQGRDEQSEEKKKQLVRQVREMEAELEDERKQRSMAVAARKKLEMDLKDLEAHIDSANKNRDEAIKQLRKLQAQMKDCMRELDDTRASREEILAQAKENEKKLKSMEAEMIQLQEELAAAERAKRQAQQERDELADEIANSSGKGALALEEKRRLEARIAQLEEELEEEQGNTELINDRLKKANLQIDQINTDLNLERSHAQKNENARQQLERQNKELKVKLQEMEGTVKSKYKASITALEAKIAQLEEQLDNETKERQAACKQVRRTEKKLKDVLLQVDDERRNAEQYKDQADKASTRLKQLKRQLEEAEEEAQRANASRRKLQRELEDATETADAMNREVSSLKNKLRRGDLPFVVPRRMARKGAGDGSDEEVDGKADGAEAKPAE"},
  "source": "paper PMC7477767",
  "biological_target": "T1, FLAG-tagged CRLF1 (Cytokine Receptor-Like Factor 1) (UniProt O75462)",
  "T1 sequence": "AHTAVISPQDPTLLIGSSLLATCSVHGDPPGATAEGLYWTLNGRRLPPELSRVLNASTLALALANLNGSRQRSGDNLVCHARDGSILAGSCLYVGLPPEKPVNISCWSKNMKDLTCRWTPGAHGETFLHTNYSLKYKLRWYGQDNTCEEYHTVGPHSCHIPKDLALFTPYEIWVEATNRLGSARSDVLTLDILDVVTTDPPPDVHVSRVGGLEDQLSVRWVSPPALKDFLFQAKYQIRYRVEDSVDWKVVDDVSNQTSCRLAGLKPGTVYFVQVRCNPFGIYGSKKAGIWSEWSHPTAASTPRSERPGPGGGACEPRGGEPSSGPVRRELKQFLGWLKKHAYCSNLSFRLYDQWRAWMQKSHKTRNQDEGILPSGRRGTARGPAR",
  "assay": "affinity purification with mass spectrometry; FLAG pull-down: lysate in IP lysis buffer (150 mM NaCl; 1% NP-40), FLAG beads at 4°C overnight, five washes, elution with FLAG peptide, SDS-PAGE, silver staining, LC-MS of the bands; empty vector as control",
  "note": "Results are given in words; binding and its absence hold for the method and conditions named. Binding seen in cells or lysates may run through a third protein. Here binding means that the protein was enriched with, or labelled near, the bait; the list need not be complete. Tags and fused reporters may be left off the sequences shown.",
  "data": [
    {"substance": "MYH9 (non-muscle myosin heavy-chain IIA protein), endogenous (from UniProt P35579 1-1960)", "values": [
      {"measurement": "binding", "result": "binds"}
    ]}
  ]
}
